Measurements: patent US11708391B2, “Rapaglutins, novel inhibitors of GLUT and use thereof” (The Johns Hopkins University, priority 2016, dated 2023)
For some assays here: At least one structure is not confirmed: it was looked up by name or label, or the drawing left a doubt. Some entries share one result that the patent states for a list of compounds.

How the values were obtained:
[1] = target: T1, GLUT1 (Homo sapiens, UniProt P11166); assay: pulldown with biotin-rapafucin conjugates from RBC-derived ghosts lysate, anti-GLUT1 Western blot; assay type: binding
T1 construct: endogenous in cells; host or cells: erythrocyte (RBC-derived) ghosts
T1 sequence (P11166 1-492): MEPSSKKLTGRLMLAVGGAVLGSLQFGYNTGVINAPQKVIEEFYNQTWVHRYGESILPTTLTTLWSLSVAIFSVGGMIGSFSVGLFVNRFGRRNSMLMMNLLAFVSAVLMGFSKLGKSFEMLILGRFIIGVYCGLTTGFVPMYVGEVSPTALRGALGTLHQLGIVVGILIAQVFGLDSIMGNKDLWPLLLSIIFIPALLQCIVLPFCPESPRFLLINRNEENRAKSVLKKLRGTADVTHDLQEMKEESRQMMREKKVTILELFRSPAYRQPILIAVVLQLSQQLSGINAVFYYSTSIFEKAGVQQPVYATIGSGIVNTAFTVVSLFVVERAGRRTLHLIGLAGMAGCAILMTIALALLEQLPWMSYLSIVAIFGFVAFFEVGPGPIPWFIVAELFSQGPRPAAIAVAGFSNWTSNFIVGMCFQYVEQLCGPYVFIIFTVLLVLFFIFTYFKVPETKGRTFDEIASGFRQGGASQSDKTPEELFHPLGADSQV
Excerpt: FIGS. 6A-6B. Identification of direct interaction of A18 and E11 to Glut1. Glut1 protein levels of A18 (a) or E11 (b) pull down samples analyzed by western blotting.
After showing that GLUT1 was very likely to be the target of A18 and E11, the direct interaction of A18 and E11 to GLUT1 was then examined. A series of biotin or diazrine-alkyne rapafucin conjugates through different positions were synthesized. […] Importantly, the binding of the biotin-rapafucin probe to GLUT1 is competed by rapafucin. […] (FIGS. 6, 21, 22 and 27)

[2] = tested on: glucose transporters; assay: 2-deoxy-D-[3H] glucose uptake in A549 cells; assay type: cell-based, human
Experimental: (§1) FIGS. 2A-2D. Inhibition of Glucose Transport by A18 and E11. (a) Inhibition of 3-O-methyl¬D-[3H] glucose uptake in A549 cells by A18. (b) Inhibition of 3-O-methyl-D-[3H] glucose uptake in A549 cells by E11. (c) Inhibition of 2-deoxy-D-[3H] glucose uptake in A549 […] cells by A18. (d) Inhibition of 2-deoxy-D-[3H] glucose uptake in A549 cells by E11.
(§2) FIGS. 16A-16B. Inhibition of Glucose Transport by A18 and E11. Cytochalasin B (10 μM), A18 (3 μM), E11 (3 μM) and DMSO control were used to treated A549 cells for 10 min (a) or 1 min (b), then glucose uptake in the treated cells was measured at 1, 3, 10 and 30 min after the addition of 2-dexoy-D-[^3H] glucose.
(§3) Direct action on glucose transporters was measured by monitoring uptake of 3H-labeled 3-O-methylglucose, which is transported by glucose transporters but not metabolized further, allowing the assessment of initial rate of glucose uptake. […] Initial uptake can also be assessed by measuring the uptake of 3H-labeled 2-deoxy-D-glucose, which gets into the cell through glucose transporters and is phosphorylated by hexokinase but cannot be metabolized further due to the lack of oxygen at the second position.

[3] = tested on: T2, glucose transporters; assay: 2-deoxy-D-[3H] glucose uptake in A549 cells; assay type: cell-based, human
T2 construct: IC50 uptake of 3H-labeled 3-O-methylglucose; other: A549 cells; compared with 3-O-methylglucose uptake; other: A549 cells treated with drugs for 1 min; other: A549 cells, glucose uptake assay; other
Experimental: as §1, §2, §3

| SMILES | competition of the binding of the rapafucin probe to GLUT1 [1] | antagonism of inhibitory effects of A18 or E11 on 2-deoxy-D-glucose uptake by FKBP ligands [2] | time to inhibition of glucose transport after the assay started [3] |
| --- | --- | --- | --- |
| C=CC[C@@H]1/C=C(\C)C[C@H](C)C[C@H](OC)[C@H]2O[C@@](O)(C(=O)C(=O)N3CCCC[C@H]3C(=O)O[C@H](/C(C)=C/[C@@H]3CC[C@@H](O)[C@H](OC)C3)[C@H](C)[C@@H](O)CC1=O)[C@H](C)C[C@@H]2OC [FK506, reference compound] | cannot be competed | unable to antagonize | – |
| CO[C@H]1C[C@@H]2CC[C@@H](C)[C@@](O)(O2)C(=O)C(=O)N2CCCC[C@H]2C(=O)O[C@H]([C@H](C)C[C@@H]2CC[C@@H](O)[C@H](OC)C2)CC(=O)[C@H](C)/C=C(\C)[C@@H](O)[C@@H](OC)C(=O)[C@H](C)C[C@H](C)/C=C/C=C/C=C/1C [rapamycin, reference compound] | cannot be competed | unable to antagonize | – |
| CC[C@@H](C)[C@H]1C(=O)NCC(=O)N(C)CC/C=C/C(=O)OCC(C)(C)C(=O)C(=O)N2CCCC[C@H]2C(=O)O[C@H](CCc2ccc(OC)c(OC)c2)c2cccc(c2)NC(=O)CCC(=O)N(C)[C@@H](CC(C)C)C(=O)N[C@H](Cc2ccccc2)C(=O)N1C [A18] | – | – | ≤ 1 min |
